From patent US8383643B2, “Spiro compounds useful as inhibitors of stearoyl-coenzyme A delta-9 desaturase” (Merck Canada Inc., priority 2009, dated 2013)

The chains behind the UniProt entries cited, without tags or fusion partners.
UniProt O00767, whole entry: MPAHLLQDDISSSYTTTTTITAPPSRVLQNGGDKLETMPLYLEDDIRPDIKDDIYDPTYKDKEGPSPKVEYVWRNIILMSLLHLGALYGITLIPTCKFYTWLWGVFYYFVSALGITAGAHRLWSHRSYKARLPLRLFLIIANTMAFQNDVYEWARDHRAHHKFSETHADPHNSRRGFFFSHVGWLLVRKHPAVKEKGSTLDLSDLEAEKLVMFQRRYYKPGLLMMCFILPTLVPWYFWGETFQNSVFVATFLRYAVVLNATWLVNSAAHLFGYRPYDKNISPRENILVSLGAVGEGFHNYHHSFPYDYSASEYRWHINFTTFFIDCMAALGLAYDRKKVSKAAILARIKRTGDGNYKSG

Molecular target: human SCD1 (Homo sapiens, UniProt O00767)
Assay: SCD enzyme activity assay, reconstituted human SCD1 desaturase system ([3H]-stearoyl-CoA conversion)
Details: read-out: IC50 hSCD-1
Procedure: The potency of compounds of formula I against the stearoyl-CoA desaturase was determined by measuring the conversion of radiolabeled stearoyl-CoA to oleoyl-CoA using rat liver microsome or human SCD1 following previously published procedures with some modifications (Joshi, et al., J. Lipid Res., 18: 32-36 (1977); Talamo, et al., Anal. Biochem, 29: 300-304 (1969)). Liver microsome was prepared from male Wistar or Sprague Dawley rats on a high carbohydrate diet for 3 days (LabDiet #5803, Purina). The livers were homogenized (1:10 w/v) in a buffer containing 250 mM sucrose, 1 mM EDTA, 5 mM DTT and 50 mM Tris-HCl (pH 7.5). After a 100,000×g centrifugation for […], the liver microsome pellet was suspended in a buffer containing 100 mM sodium phosphate, 20% glycerol, 2 mM DTT, and stored at −78° C. Human SCD1 desaturase system was reconstituted using human SCD1 from a baculovirus/Sf9 expression system, cytochrome B5 and cytochrome B5 reductase. Typically, test compound in 2 μL DMSO was incubated for […] at room temperature with 180 μL of the SCD enzyme in a buffer containing 100 mM Tris-HCl (pH 7.5), ATP (5 mM), Coenzyme-A (0.1 mM), Triton X-100 (0.5 mM) and NADH (2 mM). The reaction was initiated by the addition of 20 μL of [^3H]-stearoyl-CoA (final concentration=2 μM, radioactivity concentration=1 μCi/mL). After 10 min, the reaction mixture (80 μL) was mixed with a calcium chloride/charcoal aqueous suspension (100 μL charcoal (10% w/v) plus 25 μL CaCl2 (2N). After centrifugation to precipitate the radioactive fatty acid species, tritiated water released from 9,10-[^3H]-stearoyl-CoA by the SCD enzyme was quantified on a scintillation counter.

Structure (SMILES)	IC50 [nM]
O=C(O)Cn1nnc(-c2cnc(N3CCC4(C=C(c5ccc(Cl)cc5Cl)c5c(Cl)cccc5O4)CC3)s2)n1	0.4
O=C(O)Cn1nnc(-c2cnc(N3CCC4(C=C(c5cc(Cl)ccc5Cl)c5ccccc5O4)CC3)s2)n1	1.4
O=C(O)Cn1nnc(-c2cnc(N3CCC4(C=C(c5ccc(Cl)cc5Cl)c5ccccc5O4)CC3)s2)n1	1
O=C(O)Cn1nnc(-c2cnc(N3CCC4(C=C(c5c(Cl)cccc5Cl)c5ccccc5O4)CC3)s2)n1	1.3
O=C(O)Cn1nnc(-c2cnc(N3CCC4(C=C(c5cc(Cl)ccc5Cl)c5c(Cl)cccc5O4)CC3)s2)n1	1.3
O=C(O)Cn1nnc(-c2nnc(N3CCC4(C=C(c5ccc(Cl)cc5Cl)c5ccccc5O4)CC3)s2)n1	1.4

Structures were worked out from names or drawings and are uncertain.
